Results from the supplement of paper PMC10849652.
Some of the results follow.

Sequences of proteins named here, by UniProt entry; tags and fusion partners are left off. A change or cut given only in a name is not applied to a line headed by its entry.
UniProt Q9BWH6: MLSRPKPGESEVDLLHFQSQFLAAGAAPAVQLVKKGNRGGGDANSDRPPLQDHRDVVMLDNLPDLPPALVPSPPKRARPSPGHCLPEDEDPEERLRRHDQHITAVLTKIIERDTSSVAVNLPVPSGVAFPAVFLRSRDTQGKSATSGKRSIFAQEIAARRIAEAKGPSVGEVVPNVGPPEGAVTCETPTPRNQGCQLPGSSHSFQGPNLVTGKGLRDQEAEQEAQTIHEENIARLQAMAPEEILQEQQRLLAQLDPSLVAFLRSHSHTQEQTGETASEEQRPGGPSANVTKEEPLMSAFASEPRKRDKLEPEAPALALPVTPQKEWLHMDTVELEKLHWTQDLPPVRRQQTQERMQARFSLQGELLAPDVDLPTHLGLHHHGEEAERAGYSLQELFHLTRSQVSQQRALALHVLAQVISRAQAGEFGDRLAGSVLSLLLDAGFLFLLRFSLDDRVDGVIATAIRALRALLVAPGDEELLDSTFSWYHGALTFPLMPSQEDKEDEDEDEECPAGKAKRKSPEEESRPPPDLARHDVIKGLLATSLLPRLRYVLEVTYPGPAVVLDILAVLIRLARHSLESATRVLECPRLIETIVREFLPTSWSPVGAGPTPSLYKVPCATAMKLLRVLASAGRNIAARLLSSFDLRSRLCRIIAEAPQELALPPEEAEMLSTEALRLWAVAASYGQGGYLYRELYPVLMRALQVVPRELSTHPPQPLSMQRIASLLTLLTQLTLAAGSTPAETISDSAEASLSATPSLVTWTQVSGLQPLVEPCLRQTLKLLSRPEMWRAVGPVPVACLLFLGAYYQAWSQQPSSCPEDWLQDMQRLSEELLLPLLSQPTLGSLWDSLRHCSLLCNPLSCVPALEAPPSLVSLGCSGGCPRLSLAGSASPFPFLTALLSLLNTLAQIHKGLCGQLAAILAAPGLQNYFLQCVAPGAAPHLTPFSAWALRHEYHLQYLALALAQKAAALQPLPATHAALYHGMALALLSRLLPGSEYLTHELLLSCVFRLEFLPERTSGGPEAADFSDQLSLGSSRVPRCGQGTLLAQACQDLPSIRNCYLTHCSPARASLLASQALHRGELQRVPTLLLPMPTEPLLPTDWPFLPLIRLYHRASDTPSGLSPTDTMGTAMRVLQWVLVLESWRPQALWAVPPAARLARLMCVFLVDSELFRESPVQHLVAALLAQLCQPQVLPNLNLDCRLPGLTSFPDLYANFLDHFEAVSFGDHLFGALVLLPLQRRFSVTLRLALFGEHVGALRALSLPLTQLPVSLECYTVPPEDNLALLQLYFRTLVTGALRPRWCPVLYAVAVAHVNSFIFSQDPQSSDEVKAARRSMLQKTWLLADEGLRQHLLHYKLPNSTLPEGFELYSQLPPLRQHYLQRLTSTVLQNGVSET
UniProt O75695: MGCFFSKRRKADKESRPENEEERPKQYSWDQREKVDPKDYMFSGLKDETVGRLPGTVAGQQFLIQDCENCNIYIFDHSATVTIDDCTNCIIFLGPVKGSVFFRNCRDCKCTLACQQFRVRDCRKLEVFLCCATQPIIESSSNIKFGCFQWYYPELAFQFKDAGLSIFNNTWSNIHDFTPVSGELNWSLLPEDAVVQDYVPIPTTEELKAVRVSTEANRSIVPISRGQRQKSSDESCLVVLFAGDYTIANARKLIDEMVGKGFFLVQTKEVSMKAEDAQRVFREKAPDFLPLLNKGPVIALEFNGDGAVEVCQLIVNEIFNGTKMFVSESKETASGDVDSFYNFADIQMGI
UniProt P04843: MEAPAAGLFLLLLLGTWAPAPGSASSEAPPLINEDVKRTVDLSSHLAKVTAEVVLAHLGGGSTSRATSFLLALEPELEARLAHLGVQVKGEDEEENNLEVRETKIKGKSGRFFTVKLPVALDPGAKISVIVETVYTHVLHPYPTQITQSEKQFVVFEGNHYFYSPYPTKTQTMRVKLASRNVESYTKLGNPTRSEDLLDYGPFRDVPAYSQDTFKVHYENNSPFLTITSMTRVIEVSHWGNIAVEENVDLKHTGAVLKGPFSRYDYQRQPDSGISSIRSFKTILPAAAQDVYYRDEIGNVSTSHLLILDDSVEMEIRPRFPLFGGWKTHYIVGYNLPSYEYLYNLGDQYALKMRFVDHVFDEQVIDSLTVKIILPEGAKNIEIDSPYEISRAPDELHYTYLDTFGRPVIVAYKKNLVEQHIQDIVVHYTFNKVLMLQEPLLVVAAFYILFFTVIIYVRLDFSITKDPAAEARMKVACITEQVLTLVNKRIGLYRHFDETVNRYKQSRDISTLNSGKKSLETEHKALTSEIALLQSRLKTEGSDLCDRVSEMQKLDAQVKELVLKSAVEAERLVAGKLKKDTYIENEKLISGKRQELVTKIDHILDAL
UniProt P05387, whole entry, looked up: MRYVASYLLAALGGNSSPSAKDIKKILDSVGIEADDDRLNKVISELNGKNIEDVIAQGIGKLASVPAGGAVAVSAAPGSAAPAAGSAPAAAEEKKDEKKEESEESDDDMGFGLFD
UniProt P04844: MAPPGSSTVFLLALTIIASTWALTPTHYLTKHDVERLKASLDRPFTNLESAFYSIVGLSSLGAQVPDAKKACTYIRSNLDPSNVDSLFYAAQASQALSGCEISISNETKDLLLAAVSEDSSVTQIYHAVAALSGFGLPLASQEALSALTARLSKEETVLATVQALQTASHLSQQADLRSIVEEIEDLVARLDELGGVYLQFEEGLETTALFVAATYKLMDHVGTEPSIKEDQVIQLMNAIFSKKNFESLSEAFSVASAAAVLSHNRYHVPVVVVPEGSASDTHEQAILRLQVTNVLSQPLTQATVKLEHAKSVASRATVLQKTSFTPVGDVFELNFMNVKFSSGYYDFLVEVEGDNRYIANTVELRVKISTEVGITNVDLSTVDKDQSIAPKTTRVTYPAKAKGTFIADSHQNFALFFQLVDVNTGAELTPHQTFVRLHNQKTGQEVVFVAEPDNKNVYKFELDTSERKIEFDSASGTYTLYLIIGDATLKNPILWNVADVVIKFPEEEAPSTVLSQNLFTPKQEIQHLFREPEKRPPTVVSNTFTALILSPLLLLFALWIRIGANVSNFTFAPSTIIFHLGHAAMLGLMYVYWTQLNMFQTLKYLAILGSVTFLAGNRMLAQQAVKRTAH
UniProt Q8IZ73: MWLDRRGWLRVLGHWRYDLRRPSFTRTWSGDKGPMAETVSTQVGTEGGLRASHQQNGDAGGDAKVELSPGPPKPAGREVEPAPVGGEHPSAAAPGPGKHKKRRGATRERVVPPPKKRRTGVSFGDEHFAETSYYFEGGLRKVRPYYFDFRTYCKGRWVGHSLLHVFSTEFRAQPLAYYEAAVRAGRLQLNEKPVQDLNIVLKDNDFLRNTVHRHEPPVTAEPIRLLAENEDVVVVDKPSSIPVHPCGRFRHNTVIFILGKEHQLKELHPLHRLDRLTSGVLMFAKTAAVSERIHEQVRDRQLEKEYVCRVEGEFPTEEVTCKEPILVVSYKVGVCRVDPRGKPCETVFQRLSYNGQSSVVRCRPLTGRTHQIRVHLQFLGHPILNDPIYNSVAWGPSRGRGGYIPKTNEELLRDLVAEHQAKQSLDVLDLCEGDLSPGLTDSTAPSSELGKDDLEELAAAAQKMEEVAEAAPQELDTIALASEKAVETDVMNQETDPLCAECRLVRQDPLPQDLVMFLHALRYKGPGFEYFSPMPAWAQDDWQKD
UniProt O60942: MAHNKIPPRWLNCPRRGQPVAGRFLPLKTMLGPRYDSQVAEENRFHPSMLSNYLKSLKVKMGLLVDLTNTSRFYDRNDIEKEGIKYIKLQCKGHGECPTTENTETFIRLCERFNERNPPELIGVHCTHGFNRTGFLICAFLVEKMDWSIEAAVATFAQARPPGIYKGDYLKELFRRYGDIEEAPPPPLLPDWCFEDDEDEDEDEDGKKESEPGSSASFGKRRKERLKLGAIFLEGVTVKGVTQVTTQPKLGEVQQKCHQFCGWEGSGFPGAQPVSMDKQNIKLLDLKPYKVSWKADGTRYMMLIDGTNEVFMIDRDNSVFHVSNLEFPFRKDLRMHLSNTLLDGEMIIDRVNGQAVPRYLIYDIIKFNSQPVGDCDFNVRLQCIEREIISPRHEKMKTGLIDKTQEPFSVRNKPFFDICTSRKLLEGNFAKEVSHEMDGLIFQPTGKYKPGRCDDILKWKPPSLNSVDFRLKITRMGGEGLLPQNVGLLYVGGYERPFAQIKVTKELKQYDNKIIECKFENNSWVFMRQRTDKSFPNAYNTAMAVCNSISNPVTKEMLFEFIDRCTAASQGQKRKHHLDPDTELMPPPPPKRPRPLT
UniProt Q7LG56, whole entry, looked up: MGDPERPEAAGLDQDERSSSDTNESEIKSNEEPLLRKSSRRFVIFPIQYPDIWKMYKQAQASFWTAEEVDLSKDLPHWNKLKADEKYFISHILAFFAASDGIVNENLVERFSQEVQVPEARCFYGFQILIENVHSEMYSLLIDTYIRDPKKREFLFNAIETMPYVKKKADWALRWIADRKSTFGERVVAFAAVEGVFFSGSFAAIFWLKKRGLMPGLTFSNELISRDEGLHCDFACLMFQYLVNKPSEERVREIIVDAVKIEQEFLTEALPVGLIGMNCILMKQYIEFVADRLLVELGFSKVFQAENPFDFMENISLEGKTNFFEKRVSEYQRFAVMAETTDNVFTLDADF
UniProt P78346: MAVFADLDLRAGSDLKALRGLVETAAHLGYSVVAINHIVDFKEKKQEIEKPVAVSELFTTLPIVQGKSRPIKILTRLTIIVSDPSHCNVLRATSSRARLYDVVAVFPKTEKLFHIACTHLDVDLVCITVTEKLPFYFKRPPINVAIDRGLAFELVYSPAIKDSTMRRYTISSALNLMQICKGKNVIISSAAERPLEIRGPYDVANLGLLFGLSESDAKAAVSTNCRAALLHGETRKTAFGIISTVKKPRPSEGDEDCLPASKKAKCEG
UniProt P23443: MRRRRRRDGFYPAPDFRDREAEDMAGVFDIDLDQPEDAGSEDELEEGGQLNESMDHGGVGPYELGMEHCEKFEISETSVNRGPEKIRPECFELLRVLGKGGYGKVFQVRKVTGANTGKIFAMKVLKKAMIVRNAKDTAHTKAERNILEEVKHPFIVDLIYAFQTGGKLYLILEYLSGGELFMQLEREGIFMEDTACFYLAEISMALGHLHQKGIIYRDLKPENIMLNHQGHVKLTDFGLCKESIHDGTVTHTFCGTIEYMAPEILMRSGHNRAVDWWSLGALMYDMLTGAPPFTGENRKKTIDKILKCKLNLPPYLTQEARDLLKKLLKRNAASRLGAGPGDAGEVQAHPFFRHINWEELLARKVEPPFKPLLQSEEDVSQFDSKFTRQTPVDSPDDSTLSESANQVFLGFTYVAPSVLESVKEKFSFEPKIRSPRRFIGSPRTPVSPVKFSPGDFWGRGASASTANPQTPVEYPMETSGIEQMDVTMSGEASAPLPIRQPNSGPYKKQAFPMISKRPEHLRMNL
UniProt Q9H633: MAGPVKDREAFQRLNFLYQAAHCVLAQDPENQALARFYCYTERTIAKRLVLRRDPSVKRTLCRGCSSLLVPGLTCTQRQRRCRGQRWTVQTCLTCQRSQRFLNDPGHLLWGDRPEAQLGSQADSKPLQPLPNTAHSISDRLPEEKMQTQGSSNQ

Experiments:
Experiment in all cases: log2 fold change, soluble protein after heating vs DMSO (PISA); higher = thermal stabilisation; K562 cells, 10 uM, 30 min; active = over 0.2 and 3.5 SD of the protein, either way, in both replicates (recomputed)
[1] = compound: CS(=O)(=O)c1ccc(-c2cnc(N)c(C(=O)Nc3ccccc3)n2)cc1
In short: (§1)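 Aliquots of K562 cells (2×10^6 cells/mL) treated with 10 μM compound for 30 min were heated for 3 min over 48°C-58°C. After pooling and extraction in PBS with 0.5% NP-40 at 4°C, soluble protein from a 21,000xg, 90 min spin was quantified by TMTpro 16plex LC-MS/MS with channel sums equalised. Thermal stability is expressed against control samples, from duplicates, as a log2 fold change.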

crizotinib = compound: C[C@@H](Oc1cc(-c2cnn(C3CCNCC3)c2)cnc1N)c1c(Cl)ccc(F)c1Cl [crizotinib]
In short: as §1

[2] = compound: C[C@@H]1COCCN1C2=NC(=NC(=C2)C3(CC3)S(=O)(=O)C)C4=C5C=CNC5=CC=C4
In short: as §1

[3] = compound: C[C@H](C1=CC=C(C=C1)C(=O)NC2=C3C=CNC3=NC=C2)N
In short: as §1

duvelisib = compound: C[C@H](Nc1ncnc2nc[nH]c12)c1cc2cccc(Cl)c2c(=O)n1-c1ccccc1 [duvelisib]
In short: as §1

gandotinib = compound: Cc1cc(Nc2cc(CN3CCOCC3)c3nc(C)c(Cc4ccc(Cl)cc4F)n3n2)n[nH]1 [gandotinib]
In short: as §1

tozasertib = compound: Cc1cc(Nc2cc(N3CCN(C)CC3)nc(Sc3ccc(NC(=O)C4CC4)cc3)n2)n[nH]1 [tozasertib]
In short: as §1

[4] = compound: Cc1cc(SCc2sc(-c3ccc(C(F)(F)F)cc3)nc2C)ccc1OCC(=O)O
In short: as §1

doramapimod = compound: Cc1ccc(-n2nc(C(C)(C)C)cc2NC(=O)Nc2ccc(OCCN3CCOCC3)c3ccccc23)cc1 [doramapimod]
In short: as §1

ispinesib = compound: Cc1ccc(C(=O)N(CCCN)[C@@H](c2nc3cc(Cl)ccc3c(=O)n2Cc2ccccc2)C(C)C)cc1 [ispinesib]
In short: as §1

Measured: log2 fold change

RPAP1 (UniProt Q9BWH6)
inactive: [1] 0.015 | crizotinib -0.086 | [2] 0.005 | [3] -0.023 | duvelisib 0.004 | gandotinib -0.083 | tozasertib 0 | [4] 0.052 | doramapimod -0.003 | ispinesib -0.035

RPS6 (UniProt P62753)
inactive: [1] -0.031 | crizotinib 0.04 | [2] -0.59 | [3] 0.504 | duvelisib -0.348 | gandotinib 0.276 | tozasertib 0.129 | [4] 0.076 | doramapimod 0.31 | ispinesib -0.129

RPL17 isoform 3 (UniProt P18621)
inactive: [1] -0.053 | crizotinib 0.009 | [2] -0.704 | [3] 0.332 | duvelisib -0.199 | gandotinib 0.569 | tozasertib 0.039 | [4] 0.048 | doramapimod 0.277 | ispinesib -0.095

RPL23 (UniProt P62829)
inactive: [1] -0.043 | crizotinib 0.065 | [2] -0.486 | [3] 0.321 | duvelisib -0.176 | gandotinib 0.215 | tozasertib 0.055 | [4] -0.018 | doramapimod 0.203 | ispinesib -0.137

RPS27L (UniProt Q71UM5)
inactive: [1] -0.025 | crizotinib -0.008 | [2] -0.17 | [3] 0.117 | duvelisib -0.025 | gandotinib 0.147 | tozasertib 0.037 | [4] 0.063 | doramapimod 0.016 | ispinesib -0.05

RPL10A (UniProt P62906)
inactive: [1] -0.023 | crizotinib 0.043 | [2] -1.05 | [3] 0.705 | duvelisib -0.362 | gandotinib 0.468 | tozasertib 0.043 | [4] 0.071 | doramapimod 0.422 | ispinesib -0.229

RP2 (UniProt O75695)
inactive: [1] 0.024 | crizotinib -0.048 | [2] 0.074 | [3] 0.017 | duvelisib 0.132 | gandotinib -0.119 | tozasertib -0.045 | [4] -0.086 | doramapimod -0.054 | ispinesib -0.057

RPN1 (UniProt P04843)
inactive: [1] 0.015 | crizotinib -0.009 | [2] 0.054 | [3] -0.013 | duvelisib 0.032 | gandotinib -0.039 | tozasertib -0.003 | [4] 0.021 | doramapimod -0.001 | ispinesib -0.021

RPL35 (UniProt P42766)
inactive: [1] -0.115 | crizotinib 0.034 | [2] -0.777 | [3] 0.317 | duvelisib -0.226 | gandotinib 0.409 | tozasertib 0.095 | [4] 0.049 | doramapimod 0.242 | ispinesib -0.229

RPL27 (UniProt P61353)
inactive: [1] -0.221 | crizotinib 0.062 | [2] -1.01 | [3] 0.416 | duvelisib -0.366 | gandotinib 0.428 | tozasertib -0.001 | [4] -0.012 | doramapimod 0.306 | ispinesib -0.111

RPL15 (UniProt P61313)
inactive: [1] -0.111 | crizotinib 0.091 | [2] -1.3 | [3] 0.698 | duvelisib -0.348 | gandotinib 0.479 | tozasertib 0.069 | [4] 0.055 | doramapimod 0.382 | ispinesib -0.204

RPS11 (UniProt P62280)
inactive: [1] -0.08 | crizotinib 0.068 | [2] -0.69 | [3] 0.386 | duvelisib -0.269 | gandotinib 0.319 | tozasertib 0.006 | [4] 0.05 | doramapimod 0.297 | ispinesib -0.186

RPS26 (UniProt P62854)
inactive: [1] -0.062 | crizotinib -0.028 | [2] -0.697 | [3] 0.402 | duvelisib -0.354 | gandotinib 0.258 | tozasertib -0.051 | [4] -0.048 | doramapimod 0.227 | ispinesib -0.119

RPLP2 (UniProt P05387)
inactive: [1] -0.2 | crizotinib 0.105 | [2] -0.831 | [3] 0.559 | duvelisib -0.336 | gandotinib 0.377 | tozasertib 0.045 | [4] 0.062 | doramapimod 0.374 | ispinesib -0.291

RPL26 (UniProt P61254)
inactive: [1] -0.462 | crizotinib 0.069 | [2] -0.313 | [3] 0.139 | duvelisib -0.114 | gandotinib 0.342 | tozasertib 0.072 | [4] 0.029 | doramapimod 0.263 | ispinesib -0.427

RPL7 (UniProt P18124)
inactive: [1] -0.043 | crizotinib 0.07 | [2] -1.12 | [3] 0.644 | duvelisib -0.356 | gandotinib 0.484 | tozasertib 0.03 | [4] 0.046 | doramapimod 0.391 | ispinesib -0.292

RPN2 (UniProt P04844)
inactive: [1] -0.002 | crizotinib -0.001 | [2] -0.012 | [3] 0.017 | duvelisib -0.009 | gandotinib -0.008 | tozasertib 0.023 | [4] 0.005 | doramapimod 0.022 | ispinesib 0

RPUSD2 (UniProt Q8IZ73)
inactive: [1] 0.014 | crizotinib 0.009 | [2] 0.024 | [3] -0.034 | duvelisib 0.045 | gandotinib 0.026 | tozasertib -0.019 | [4] 0.03 | doramapimod 0.022 | ispinesib 0.021

RPL36AL (UniProt Q969Q0)
inactive: [1] -0.025 | crizotinib -0.191 | [2] -0.41 | [3] 0.298 | duvelisib -0.259 | gandotinib 0.39 | tozasertib 0.048 | [4] 0.032 | doramapimod 0.042 | ispinesib -0.054

RNGTT (UniProt O60942)
inactive: [1] 0.026 | crizotinib -0.092 | [2] 0.337 | [3] -0.049 | duvelisib 0.091 | gandotinib -0.134 | tozasertib 0.065 | [4] 0.033 | doramapimod 0.052 | ispinesib 0.073

RPL28 (UniProt P46779)
inactive: [1] -0.101 | crizotinib 0.045 | [2] -1.24 | [3] 0.597 | duvelisib -0.317 | gandotinib 0.449 | tozasertib 0.053 | [4] 0.05 | doramapimod 0.361 | ispinesib -0.323

RRM2B isoform 6 (UniProt Q7LG56)
inactive: [1] 0.017 | crizotinib -0.003 | [2] 0.055 | [3] -0.032 | duvelisib 0.015 | gandotinib -0.124 | tozasertib -0.031 | [4] 0.009 | doramapimod 0.109 | ispinesib 0.011

RPP30 isoform 2 (UniProt P78346)
inactive: [1] -0.062 | crizotinib 0.04 | [2] -0.048 | [3] 0.012 | duvelisib -0.012 | gandotinib 0.123 | tozasertib -0.018 | [4] -0.128 | doramapimod 0.006 | ispinesib -0.016

RPL26L1 (UniProt Q9UNX3)
inactive: [1] -0.095 | crizotinib -0.071 | [2] -0.691 | [3] 0.465 | duvelisib -0.178 | gandotinib 0.536 | tozasertib 0.028 | [4] 0.09 | doramapimod 0.184 | ispinesib -0.192

RPL29 (UniProt P47914)
inactive: [1] -0.095 | crizotinib -0.057 | [2] -1.08 | [3] 0.403 | duvelisib -0.346 | gandotinib 0.409 | tozasertib 0.056 | [4] 0.05 | doramapimod 0.268 | ispinesib -0.078

RPS24 isoform 4 (UniProt P62847)
inactive: [1] -0.005 | crizotinib 0.051 | [2] -0.397 | [3] 0.293 | duvelisib -0.153 | gandotinib 0.232 | tozasertib 0.016 | [4] 0.002 | doramapimod 0.165 | ispinesib -0.185

RPS10 (UniProt P46783)
inactive: [1] -0.057 | crizotinib 0.007 | [2] -0.308 | [3] 0.139 | duvelisib -0.1 | gandotinib 0.173 | tozasertib -0.011 | [4] -0.006 | doramapimod 0.042 | ispinesib -0.072

Taken from the entries so far (eight entries):
RPN2 (UniProt P04844)
inactive: [1] -0.002 | crizotinib -0.001 | [2] -0.012 | [3] 0.017 | duvelisib -0.009 | gandotinib -0.008 | tozasertib 0.023 | [4] 0.005 | doramapimod 0.022 | ispinesib 0

RPUSD2 (UniProt Q8IZ73)
inactive: [1] 0.014 | crizotinib 0.009 | [2] 0.024 | [3] -0.034 | duvelisib 0.045 | gandotinib 0.026 | tozasertib -0.019 | [4] 0.03 | doramapimod 0.022 | ispinesib 0.021

RPL36AL (UniProt Q969Q0)
inactive: [1] -0.025 | crizotinib -0.191 | [2] -0.41 | [3] 0.298 | duvelisib -0.259 | gandotinib 0.39 | tozasertib 0.048 | [4] 0.032 | doramapimod 0.042 | ispinesib -0.054

RNGTT (UniProt O60942)
inactive: [1] 0.026 | crizotinib -0.092 | [2] 0.337 | [3] -0.049 | duvelisib 0.091 | gandotinib -0.134 | tozasertib 0.065 | [4] 0.033 | doramapimod 0.052 | ispinesib 0.073

RPL28 (UniProt P46779)
inactive: [1] -0.101 | crizotinib 0.045 | [2] -1.24 | [3] 0.597 | duvelisib -0.317 | gandotinib 0.449 | tozasertib 0.053 | [4] 0.05 | doramapimod 0.361 | ispinesib -0.323

RRM2B isoform 6 (UniProt Q7LG56)
inactive: [1] 0.017 | crizotinib -0.003 | [2] 0.055 | [3] -0.032 | duvelisib 0.015 | gandotinib -0.124 | tozasertib -0.031 | [4] 0.009 | doramapimod 0.109 | ispinesib 0.011

RPP30 isoform 2 (UniProt P78346)
inactive: [1] -0.062 | crizotinib 0.04 | [2] -0.048 | [3] 0.012 | duvelisib -0.012 | gandotinib 0.123 | tozasertib -0.018 | [4] -0.128 | doramapimod 0.006 | ispinesib -0.016

RPL26L1 (UniProt Q9UNX3)
inactive: [1] -0.095 | crizotinib -0.071 | [2] -0.691 | [3] 0.465 | duvelisib -0.178 | gandotinib 0.536 | tozasertib 0.028 | [4] 0.09 | doramapimod 0.184 | ispinesib -0.192

Carrying on:

RPS6KB1 (UniProt P23443)
inactive: [1] 0 | crizotinib -0.109 | [2] 0.004 | [3] -0.009 | duvelisib 0 | gandotinib -0.151 | tozasertib -0.031 | [4] 0.039 | doramapimod -0.032 | ispinesib -0.041

RPP21 isoform 4 (UniProt Q9H633)
inactive: [1] 0.049 | crizotinib -0.018 | [2] -0.018 | [3] -0.095 | duvelisib -0.057 | gandotinib 0.112 | tozasertib 0.066 | [4] 0.006 | doramapimod 0.032 | ispinesib 0.081

RPL37A (UniProt P61513)
inactive: [1] -0.126 | crizotinib 0.052 | [2] -1.18 | [3] 0.701 | duvelisib -0.332 | gandotinib 0.413 | tozasertib 0.051 | [4] 0.066 | doramapimod 0.227 | ispinesib -0.229
